Here are results for 46 molecules from ChEMBL document CHEMBL4513149, “CO-ADD screening of MMV (CH) - MMV compounds” (2021).

The list shows a part of the results. Potency and affinity values are given separately.

This experiment relates to Pseudomonas aeruginosa. The settings on record: Concentration 20 uM; ASSAY_TEST Inhibition of Bacterial Growth; detection method Absorption (OD600); MEDIA CAMHB; plate type 384well; NBS; CORNING #3640; time 18 hr.
In general, Inhibition refers to the relative decrease from the control value, in per cent. In the case of `COc1cccc2c(C)nc(N=C(N)N)nc12.O=C(O)C(F)(F)F.O=C(O)C(F)(F)F`, the Inhibition was determined as 13.82%.
Regarding `CC(C)C(C(=O)Nc1ccc(S(=O)(=O)N(C)C)cc1)c1ccc(Cl)cc1` (stereo unspecified), the Inhibition is 11.04%.
On to `Nc1ncnc2c1c(-c1cnc3ccccc3c1)nn2CC1CCNCC1`, for which the Inhibition came out at 6.19%.
For `O=C(NC1CCN(c2ccnc3ccccc23)C1)c1cccc(C(F)(F)F)c1` (stereo unspecified), the Inhibition amounted to 18.51%.
For `CCCCOC(=O)Nc1cc2nc(C3CCCCC3)[nH]c2cc1N1CCCC1` the value was 1.19%; for `O=C(c1ccc(F)cc1)N(CCNc1ccccc1)c1ccccc1`, 12.58%.
For `c1ccc2c(c1)CN(CC1CC1)CC1(CCN(Cc3c[nH]c4cnccc34)CC1)O2` the value was 4.91%.
As for `CCS(=O)(=O)N(Cc1ccco1)Cc1cc2ccc(C)cc2nc1O`, the Inhibition worked out at 4.65%.
The same measure for `OCc1ccc(-c2cncc(Nc3cccc(Cl)c3)c2)cc1`: 17.87%; for `CC(=O)Nc1ccc(NC(=O)c2cc(-c3cc(Cl)ccc3O)n[nH]2)cc1`: 7.36%.
For `COc1ccc(-c2cc(NC(=O)c3ccc(F)cc3Cl)ccc2OC)cc1`, the Inhibition turned out to be 12.31%.
The same measure for `COc1ccc2nc(C)cc(OCC(=O)Nc3ccccc3OC)c2c1`: 16.24%.
Turning to `O=C(C(Cc1c[nH]c2ccccc12)NS(=O)(=O)c1ccc(Cl)cc1)N1CCCCC1` (stereo unspecified), the Inhibition was 2.9%.
For `N#CCN(CCCCN1CCN(c2ccc(F)cc2)CC1)C(=O)OCc1ccccc1` the value was 16.37%; for `CCC(Sc1nc2ccccc2o1)C(=O)Nc1nccs1` (stereo unspecified), 14.44%.
With `N#Cc1ccc(-c2cnc(N)c(-c3ccc(C(N)=O)cc3)n2)cc1`, the Inhibition was found to be 12.35%.
For `CC1CS(=O)(=O)CCN1/N=C/c1ccc([N+](=O)[O-])o1` (stereo unspecified) [NIFURTIMOX] the value was 14.26%.
The same measure for `Cc1cc2ccccc2n1CC(=O)N1CC(C(=O)N2CCCCC2)Oc2ccccc21` (stereo unspecified): 14.62%.
For `O=C(Nc1nc(-c2ccccn2)cs1)c1cncn1-c1ccccc1` the value was 8.38%.
Consider `COc1nc2ccc(Br)cc2cc1[C@@H](c1ccccc1)[C@@](O)(CCN(C)C)c1cccc2ccccc12.O=C(O)C(F)(F)F`, for which the Inhibition came out at 29.83%.
For `O=C(OCc1ccccc1)N1CCC(c2cc(-c3ccncc3)c(-c3ccc(F)cc3)[nH]2)CC1`, the Inhibition was -0.02%.
The same measure for `Cc1noc(C)c1COc1cccc(C(=O)N=c2[nH]cccc2C)c1`: 14.41%; for `COc1cccc(OCC(=O)c2ccc(Br)cc2)c1`: -5.97%; for `O=C(Nc1nnc(S)s1)c1cc(Br)ccc1Cl`: 5.03%.
For `O=C(Nc1ccc(F)c(-c2nc3cc(-c4ccccc4)cnc3[nH]2)c1)N1CCCC1` the value was 6.46%.
For `OC[C@H]1O[C@@H](n2c3ccc(Cl)cc3c3c(-c4cc5ccccc5o4)ncnc32)C(O)[C@H]1O` (stereo partly specified) the value was 6.11%; for `CC(C)c1ncc(-c2ccncc2)c([C@H]2CC[C@H](CNC(=O)c3cccnc3)CC2)n1`, 18.15%; for `O=C(Nc1ccccc1-c1nc2c(C(=O)O)cccc2o1)c1ccccc1`, -1.97%.
On to `Cc1ccc(S(=O)(=O)n2cc(-c3ccnc(N)c3)c3cc(Br)cnc32)cc1`, for which the Inhibition is recorded as 0.76%.
The same measure for `CC(C)/N=c1\cc2n(-c3ccc(Cl)cc3)c3ccccc3nc-2cc1Nc1ccc(Cl)cc1` [CLOFAZIMINE]: 6.99%; for `c1cc(C2=NCCN2)cc(-c2cc(-c3ccc(C4=NCCN4)cc3)no2)c1`: 15.63%; for `CC(C)(C)OC(=O)N1CCN(c2nccc(-c3ccc(-c4ccc(Cl)cc4)s3)n2)CC1`: 6.83%.
The same measure for `Cc1ccc(-c2nc(CN(Cc3ccccn3)C(C)C)cs2)o1`: 21.2%.
For `Nc1ccc(C(=O)Nc2ccc(-c3nc4ccccc4o3)cc2)cc1` the value was 8.27%.
`CCCCS(=O)(=O)Nc1ccc2cnn(C)c2c1`: the Inhibition is on record as 12.08%.
`CCN(CC)CCCN1CCN(C(=O)c2cccc(-c3noc(C(F)(F)F)n3)c2)CC1`: the Inhibition is reported as -2.85%.
Take `O=C(NCCc1c[nH]c2ccccc12)c1cc2ccccc2oc1=O`: the Inhibition was determined as 10.24%.
Regarding `CC1CCCN(C(=O)C(C)Nc2cc(Cl)ccc2N2CCOCC2)C1` (stereo unspecified), the Inhibition worked out at 13.93%.
In the case of `COc1ccc(-c2cnc3cnc(-c4cccc(OC(C)C)c4)cn23)cc1`, the Inhibition was determined as 7.28%.
For the molecule `Cc1cc(Nc2ccc(C(F)(F)F)cc2)n2ccnc2n1`, the Inhibition is given as 17.38%.
The same measure for `COc1ccc(CN2CCOc3ccc(C(C)(O)CN(C)C)cc3C2)cc1C` (stereo unspecified): 10.75%; for `CCCn1c(CNc2ccccc2O)nc2ccccc21`: 12.01%; for `Cc1cc(C)nc(-n2nc(C)cc2Nc2ccccc2)n1`: 12.99%.
For the molecule `Nc1ncnc2[nH]nc(Cc3cccc4ccccc34)c12`, the Inhibition amounted to 14.6%.
For `CN1CCCC1CCO[C@](C)(c1ccccc1)c1ccc(Cl)cc1.O=C(O)/C=C/C(=O)O` (stereo partly specified) the value was 22.35%; for `Cc1ccc(-c2cc(C(=O)Nc3cccnc3)c3cc(Br)ccc3n2)cc1`, 5.94%.
